Results from patent US5738858A, “Skin care compositions containing fatty hydroxyethyl imidazoline surfactants and retinol or retinyl ester” (priority 1996, dated 1998).
For at least one compound, name, drawing or mass did not settle the structure.

How the values were obtained:
[1] = system: keratinocyte differentiation (TGase 1); experiment: Transglutaminase (TGase 1) ELISA, keratinocyte differentiation (Example 4); assay type: cell-based, human; conditions: used alone; Table 4
Description: Human keratinocytes, isolated from neonatal foreskin by trypsin treatment were grown in Dulbecco Modification Eagle (DME) Hams F12 (1:1) medium/10% fetal calf serum in the presence of irradiated 3T3 mouse fibroblasts for establishing dividing keratinocyte colonies. Cells were grown under the above condition until their second passage and kept frozen for future use. Frozen second passage keratinocytes were thawed and plated into the above medium and grown for five days before they were switched to a serum-free MCDB 153-based medium keratinocyte growth medium (KGM) from Clonetics Corporation, San Diego, Calif., containing 0.15 mM Ca, or keratinocyte serum-free media (KSFM) from GIBCO containing 0.09 mM Ca). […]
Keratinocytes (cultured as described above) were plated in 96 well plates at a density of 3,000 cells per well in […] of cell culture media. […] The absorbance of samples was read at 492 nm in the plate reader. […] Transglutaminase I levels were determined by subtracted background from the readings from each treatment and determining the mean s.d. for the replicates exposed to both antibodies.
The level of TGase-1 detected after treatment of the cells could be influenced by cell number, i.e., the greater the number of cells the greater the level of TGase-1 detected. […]

retinol esterification = experiment: In vitro microsomal esterification of retinol (ARAT and LRAT, overall statements); assay type: biochemical, bovine; conditions: Table 2

SMILES: CCCCCCCC/C=C\CCCCCCCC1=NCCN1CCO [oleyl hydroxyethyl imidazoline]
- keratinocyte differentiation (in words) [1]: did not affect keratinocyte differentiation when used alone
- esterification inhibition (in words) (retinol esterification): potent esterification inhibitor
